Experimental data taken from patent US9315484B2, “Mitochondrial aldehyde dehydrogenase-2 modulators and methods of use thereof” (The Board of Trustees of the Leland Stanford Junior …, priority 2007, dated 2016).
Residue numbers refer to the chain shown, from its start. Some entries share one result that the patent states for a list of compounds.

Legend:
ALDH2*2 mutant enzyme = molecular target: T1, ALDH2*2 mutant enzyme (Homo sapiens, UniProt P05091, E504K); assay: ALDH2 enzymatic assay, ALDH2*2 recombinant enzyme; format: biochemical; conditions: at the higher concentration (range 10-200 μM); n=3
T1 sequence (P05091 18-517 E504K): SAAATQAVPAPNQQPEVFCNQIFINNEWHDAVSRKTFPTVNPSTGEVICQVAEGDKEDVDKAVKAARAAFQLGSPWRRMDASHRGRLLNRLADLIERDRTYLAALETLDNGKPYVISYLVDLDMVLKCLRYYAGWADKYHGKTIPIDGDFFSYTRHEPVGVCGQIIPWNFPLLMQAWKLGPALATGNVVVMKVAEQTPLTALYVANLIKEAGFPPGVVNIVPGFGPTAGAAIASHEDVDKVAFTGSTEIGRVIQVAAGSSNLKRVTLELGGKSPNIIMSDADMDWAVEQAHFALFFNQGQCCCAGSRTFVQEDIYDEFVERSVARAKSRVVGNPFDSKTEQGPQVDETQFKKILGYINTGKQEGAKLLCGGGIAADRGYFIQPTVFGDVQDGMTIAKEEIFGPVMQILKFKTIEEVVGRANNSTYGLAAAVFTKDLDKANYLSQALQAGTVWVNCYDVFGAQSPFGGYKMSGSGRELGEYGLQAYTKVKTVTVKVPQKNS
Experimental: BDDB derivative compounds, XO43 and XO44 as depicted in FIG. 12, were synthesized and tested in ALDH2 enzymatic assays. […] Enzymatic activity was measured by a reductive reaction of NAD^+ to NADH at 340 nm, as described in US 2005/0171043; and WO 2005/057213. […] (FIG. 12: n=3 for both right and left panels.)

"wild-type" ALDH2 enzyme = molecular target: T2, "wild-type" ALDH2 enzyme (Homo sapiens, UniProt P05091); assay: Screen and inhibition assay with wild-type ALDH2 enzyme; format: biochemical
T2 sequence (P05091 18-517): T1 sequence (P05091 18-517 E504K) with K487E
Experimental: Compounds were screened using a method as depicted schematically in FIG. 2. Essentially, the reaction is carried out at 25° C. in 0.1 NaPPi buffer, pH 9.5, 2.4 mM NAD^+ and 10 mM acetaldehyde as the substrate. Enzymatic activity is measured by a reductive reaction of NAD^+ to NADH at 340 nm. Alternatively, the production of NADH can be coupled with another enzymatic reaction that consumes NADH and that provides for a detectable signal. An example of such an enzymatic reaction is a diaphorase-based reaction, which reduces resazurin to its […] fluorescent compound resorufin.
Compounds were screened, as described above, but using the “wild-type” ALDH2 enzyme. Of 63,000 compounds screened, six inhibitors were identified. Three of the compounds, referred to in FIGS. 8, 9, and 10 as #062923, #046072, and #032208, respectively, were assayed for their effect on ALDH2 enzymatic activity.

SMILES | increase in activity of ALDH2*2 mutant enzyme (ALDH2*2 mutant enzyme) | result of the initial screen of 63,000 compounds ("wild-type" ALDH2 enzyme)
O=C(NCc1ccc2c(c1)OCO2)c1c(Cl)cncc1Cl [XO43] | > 900% | 
Cc1cccc(C)c1C(=O)NCc1ccc2c(c1)OCO2 [XO44] | > 900% | 
Cc1ccc(NC(=O)COc2ccc3ccccc3c2)cc1F [Compound 18] |  | identified in the initial screen as ALDH2 inhibitors
O=C(NCc1ccc2c(c1)OCO2)c1c(Cl)cccc1Cl [Compound 1, N-(1,3-benzodioxol-5-ylmethyl)-2,6-dichlorobenzamide] | > 900% | 
Oc1ccc(NCc2ccc(OCc3cccs3)cc2)cc1 [Compound 10] |  | identified in the initial screen as ALDH2 inhibitors
Cc1ccc2c(c1)C(=O)C(CN1CCOCC1)CO2 (stereo not drawn) [Compound 12] |  | identified in the initial screen as ALDH2 inhibitors
CCCCN1C(=O)C(Cl)=C(Cl)C1NC(=O)c1ccccc1 (stereo not drawn) [Compound 13] |  | identified in the initial screen as ALDH2 inhibitors
CCN1CCC(O)(c2ccc(F)cc2)C(C(=O)c2ccc(F)cc2)C1 (stereo not drawn) [Compound 15] |  | identified in the initial screen as ALDH2 inhibitors
CNCc1ccccc1Sc1ccc(O)c(O)c1 [Compound 8] |  | identified in the initial screen as ALDH2 inhibitors
